Reference: the supplement of paper PMC7858590
“And” between values parts separate entries of the source, which are not always exact repeats. Equal entries are not always repeated. ± gives the standard deviation of the averaged measurements. Whole data set: some 3,800 compounds, median “cell shape (eccentricity) Z-score vs DMSO control” near 1.1, cut for the lowest 2% near -4.7. Some of the results follow.

These compounds were tested on human monocyte-derived macrophages (M0) (assay: cell shape (eccentricity) Z-score vs DMSO control; higher = more elongated, M2-like morphology). Details: 20 µM; 24 h; macrophage state: M0 (M-CSF).

Compound	cell shape (Z-score)
C=C(C(=O)O)C(CCCCCC)C(=O)O (stereo not drawn)	3.8
COc1ccc(N(C(=O)c2ccccc2)S(=O)(=O)c2cc(OC)ccc2OC)cc1	5.66
CC(=O)O[C@H]1C(=O)[C@@]2(C)C([C@H](OC(=O)c3ccccc3)[C@]3(O)C[C@H](OC(=O)[C@H](O)[C@@H](NC(=O)c4ccccc4)c4ccccc4)C(C)=C1C3(C)C)[C@]1(OC(C)=O)CO[C@@H]1C[C@@H]2O (stereo partly drawn)	-4.41 and -4.29 and -4.69
CC1CCCC2=CC(OC2=O)C(C)(C)CCC1=O (stereo not drawn)	-0.683
CC(C)CC(=O)Nc1n[nH]c2c1CN(C(=O)C1CCN(C)CC1)C2(C)C	2.68
Cc1cccc(C(=O)O)c1O	0.767
COc1cc([C@H]2c3cc(O)c(OC)cc3C[C@@](O)(CO)[C@@H]2CO)ccc1O	2.44
CCn1cc(C(=O)O)c(=O)c2cnc(N3CCNCC3)nc21	0.375
C[C@@H]1O[C@@H](O[C@H]2[C@@H]3C=CO[C@@H](O[C@@H]4O[C@H](CO)[C@@H](O)[C@H](O)[C@H]4O)[C@@H]3[C@@]3(CO)O[C@@H]23)[C@H](O)[C@H](O)[C@H]1OC(=O)/C=C/c1ccccc1	1.81
COc1ccc(S(=O)(=O)N(C(C)=O)c2ccc(OC(C)=O)c3ccccc23)cc1[N+](=O)[O-]	-0.464
Cc1ccc2c(=O)c3ccccc3n(CCCN)c2c1C	8.39
COc1ccc(NC(=O)c2cc(OCCCN(C)C)nn2Cc2ccccc2)cc1	-0.951
Cc1cc(CC(C)CC(C)(C)C)n(O)c(=O)c1 (stereo not drawn)	-3.7
CC(C)=CCc1c(O)cc2occ(-c3ccc(O)cc3O)c(=O)c2c1O	1.07
CN1CCN(C(=O)C[C@H]2CC[C@H](NC(=O)c3ccc4c(c3)OCO4)[C@@H](CO)O2)CC1	2.05
N[C@H](C(=O)O)[C@@H]1CC(Cl)=NO1	-0.884
Cc1c(OCC(F)(F)F)ccnc1CS(=O)c1nc2ccccc2[nH]1 (stereo not drawn)	3.11
O=S(=O)(O)c1cc(I)c(O)c2ncccc12	3.55
CC(=O)OC1CCC2C3CCc4cc(O)ccc4C3CCC12C (stereo not drawn)	1.45
COc1cc2c(cc1OC)C1Cc3ccc(OC)c(OC)c3CN1CC2 (stereo not drawn)	3.9
CC1OC(OC2C(O[C@H]3OC[C@](O)(CO)[C@H]3O)COC(O[C@@H]3[C@@H](O)[C@@H](O)[C@H](OC4C(OC(=O)[C@]56CCC(C)(C)CC5C5=CCC7[C@@]8(C)C[C@H](O)[C@H](OC9OC(CO)C(O)C(O)C9O)[C@@](C)(CO)C8[C@H](O)C[C@@]7(C)[C@]5(C)CC6)OCC(O)C4O)O[C@H]3C)C2O)C(O)C(O)C1O (stereo partly drawn)	-5.84
OC(CN1CCNCC1)Cn1c2ccc(Br)cc2c2cc(Br)ccc21 (stereo not drawn)	-4.09
O=C1C(=O)C([C@H]2CC[C@H](c3ccc(Cl)cc3)CC2)C(=O)c2ccccc21 (stereo partly drawn)	0.59 ± 2

2 records drawn at random from those above, as already listed:
Compound	cell shape (Z-score)
Cc1ccc2c(=O)c3ccccc3n(CCCN)c2c1C	8.39
COc1cc2c(cc1OC)C1Cc3ccc(OC)c(OC)c3CN1CC2 (stereo not drawn)	3.9
